Source: patent publication US20210115406A1, “HOST-BIOME INTERACTIONS” (EMULATE, INC., priority 2018, published 2021)
At least one compound was matched to its structure with a doubt left.

System: MB5890 (mutant) strain
Test: Imipenem treatment of P. aeruginosa infection on Airway chip, CFU quantification
Format: cell-based, Pseudomonas aeruginosa
Details: Imipenem 50, 100 and 500 μg/ml for 24 hours

`C[C@@H](O)[C@H]1C(=O)N2C(C(=O)O)=C(SCCN=CN)C[C@H]12` [Imipenem] was tested, and the “bactericidal effect on growth (CFU counts)” value was “significant bactericidal effect”.
